Results deposited as PubChem BioAssay AID504808 (Drosophila RNAi Screening Center, 2011)

Screen: 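Chromatin factors that keep E2F targets switched off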 (primary screen)
System: Drosophila S2 cells
Reagent: long dsRNA against Drosophila genes
Measured: 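Firefly luciferase driven by E2F sites, normalised to Renilla luciferase on the same minimal promoter, measured by plate reader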
Direction: E2F firefly: higher = more E2F reporter activity; Renilla normaliser: higher = more normaliser reporter signal
Hit rule: 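Called active if the normalised E2F reporter went up by over 50%; the cutoff is arbitrary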
The screen tested about 21,000 reagents; shown is a random part of those with a known target gene and a result. Over the whole deposit, 18 (0.084%) are marked active. 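Raw counts without plate normalisation, one of two replicates; the ratio scores behind the calls were not deposited.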 A number with no mark means an inactive call. Names joined by + are all predicted targets of the reagent. The record does not give: the amount of reagent, the time to read-out.

predicted target | DRSC id | E2F firefly, rep 1 | Renilla normaliser, rep 1
ave | DRSC05502 | 1.26e5 | 5221
CG5776 | DRSC02891 | 81299 | 2887
Cpr47Eb | DRSC06345 | 96571 | 4851
Pkn | DRSC06809 | 2967 | 166
Pkn | DRSC06810 | 1.51e5 | 5105
CG42507 + Trl | DRSC09325 | 1.20e5 | 3956
CG42507 + Trl | DRSC11308 | 52086 | 2874
Prosbeta5R2 | DRSC01617 | 1.25e5 | 6131
nito | DRSC05943 | 3002 | 227
CG14861 | DRSC14984 | 1.16e5 | 6055
Coprox | DRSC01996 | 98190 | 4063
POLDIP2 | DRSC12194 | 72909 | 3674
CG34328 | DRSC19256 | 87109 | 3074
CG34115 | DRSC03840 | 1.13e5 | 4360
l(3)62Be (retired record) | DRSC08231 | 77762 | 3624
Or35a | DRSC03389 | 98142 | 4544
Bcat | DRSC19756 | 1.40e5 | 7397
RpS29 + snoRNA:Psi18S-1275 | DRSC16433 | 73003 | 6546
CG15543 | DRSC15081 | 1.32e5 | 6533
Mocs2A + Mocs2B | DRSC13697 | 58913 | 3539
Mocs2A + Mocs2B | DRSC14219 | 1.13e5 | 5992
inv | DRSC07633 | 92957 | 4302
Polr2L | DRSC14630 | 79304 | 5757
CG5418 | DRSC02857 | 92837 | 4158
fabp + sea | DRSC16114 | 75523 | 3737
fabp + sea | DRSC16115 | 75878 | 3788
CG42566 | DRSC03949 | 1.25e5 | 4725
CG15696 | DRSC15118 | 1.45e5 | 7534
CG9593 | DRSC16508 | 1.19e5 | 6762
CG32204 | DRSC09574 | 72221 | 2984
Cyp4ad1 | DRSC07369 | 2750 | 252
Liprin-alpha | DRSC02132 | 94284 | 3808
kto | DRSC10983 | 80133 | 3194
CG8306 | DRSC07141 | 66410 | 3478

3 of these entries, set out differently.
predicted target,DRSC id,"E2F firefly, rep 1","Renilla normaliser, rep 1"
CG5418,DRSC02857,92837,4158
fabp + sea,DRSC16114,75523,3737
fabp + sea,DRSC16115,75878,3788
